Over roughly 33,000 sequences, “E-score (-0.5 to 0.5)” has its median near -0.015; the highest 2% begin near 0.3. The list shows a part of the results.

This assay concerns the target T1, Abf1 (UniProt P14164).
T1 sequence: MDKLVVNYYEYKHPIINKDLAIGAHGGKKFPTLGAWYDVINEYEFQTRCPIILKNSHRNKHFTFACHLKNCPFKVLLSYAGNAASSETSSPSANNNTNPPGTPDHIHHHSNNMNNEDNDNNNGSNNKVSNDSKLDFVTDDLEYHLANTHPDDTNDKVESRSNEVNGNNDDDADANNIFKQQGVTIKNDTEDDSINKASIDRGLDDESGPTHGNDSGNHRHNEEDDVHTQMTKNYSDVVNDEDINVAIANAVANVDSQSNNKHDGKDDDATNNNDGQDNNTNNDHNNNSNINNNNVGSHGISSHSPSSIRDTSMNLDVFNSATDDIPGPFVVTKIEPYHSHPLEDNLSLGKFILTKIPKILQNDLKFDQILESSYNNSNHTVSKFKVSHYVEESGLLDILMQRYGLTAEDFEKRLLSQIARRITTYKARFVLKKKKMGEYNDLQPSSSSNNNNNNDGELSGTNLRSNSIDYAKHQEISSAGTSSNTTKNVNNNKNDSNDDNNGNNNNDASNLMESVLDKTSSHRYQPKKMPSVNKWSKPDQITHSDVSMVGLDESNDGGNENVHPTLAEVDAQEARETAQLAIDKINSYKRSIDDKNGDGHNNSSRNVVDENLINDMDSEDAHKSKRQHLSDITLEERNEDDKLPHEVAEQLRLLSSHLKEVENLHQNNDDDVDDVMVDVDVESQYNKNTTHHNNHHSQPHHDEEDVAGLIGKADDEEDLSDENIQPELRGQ
As to the kind of experiment: PBM E-score (8-mer binding enrichment) (E-score (-0.5 to 0.5)); higher = stronger / more preferred TF binding. As to conditions: protein concentration: 200 nM; construct: GST-full length. In a few lines: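 Each ungapped eight-base word and its reverse complement, pooled, received an E-score from the Universal PBM Analysis Suite. Underlying scans, normalised with masliner, recorded fluorescent anti-GST bound to GST-tagged yeast transcription factors. These were applied at about 100-200 nM to universal all-10-mer Agilent arrays double-stranded by primer extension.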
For GTGTATTA, the “PBM E-score” value came to 0.195.
For CAGGTTGC, the “PBM E-score” value was -0.143.
On to GGCCACCC, for which the “PBM E-score” value is -0.19.
To CCGGCTAG belongs -0.297; to GACCTATA, 0.193; to AGGCTGCA, -0.0891.
To ACTGAACT belongs -0.184.
As for AACCCTCA, the figure is -0.0559; as for GCGCTAGC, 0.0309; as for AGCGGCCG, 0.141.
As to CGGCTTCC, the “PBM E-score” value was -0.135.
As for GGCCGACA, the figure is -0.088; as for GGACAGCC, -0.0366; as for CGCAGCCC, -0.149.
To GCAAGACC belongs -0.132.
For CCTTCGGC, the “PBM E-score” value is -0.283.
As for ATCTGGAG, the figure is -0.0646; as for TAGGTTGA, -0.00555; as for CCGTGTGC, -0.0501.
With ATCAATCA, the “PBM E-score” value is 0.182.
Turning to CGGCTGAA, the “PBM E-score” value is -0.128.
Consider CACATTGG, for which the “PBM E-score” value is -0.0823.
To TCCTTACA belongs -0.137; to CGTCCTAC, -0.0375.
As for AGACCAGG, the figure is -0.244; as for ATAGTAAT, 0.132; as for AGTTACAA, 0.0157.
To ATCTGGAA belongs -0.0292; to CCGTACAC, 0.3; to CAAGGGGG, -0.28.
On to AAGTGTGA, for which the “PBM E-score” value came out at 0.0268.
As to GCCACGCA, the “PBM E-score” value was -0.141.
As for ACACTAAG, the figure is 0.033.
Consider TCTATGCA, for which the “PBM E-score” value was -0.0315.
As for ATGACGTG, the figure is 0.237; as for GACCACGA, 0.123.
To ACGAAGCC belongs 0.191; to CTGTACCA, 0.0163.
On to AATGCTGC, for which the “PBM E-score” value was -0.164.
As for CACGCGTA, the figure is 0.103; as for GCAGTGAC, 0.15.
With GGCATTCA, the “PBM E-score” value is -0.0387.
With GGAAAAAC, the “PBM E-score” value was -0.133.
As for GTGCTAGA, the figure is -0.0999; as for AGCGCAAA, -0.0454.
To AACTAGAT belongs 0.0149; to GACGGCGC, 0.152.
To CCCATACC belongs -0.254; to GAACATCC, 0.0556.
Consider CCCAGAAG, for which the “PBM E-score” value is -0.101.
CAACCAGA: the “PBM E-score” value worked out at 0.0644.
To AGCCTTGG belongs -0.0139; to AAGTGTCC, -0.134.
AGAATACT: the “PBM E-score” value is -0.0778.
As for AACTAGTA, the figure is 0.0186; as for ATGTATGA, 0.194.
As for GCACTCTA, the figure is 0.0443; as for CCCATTGA, -0.0747.
As for GCCATCAC, the figure is -0.121.
AACGAGTT: the “PBM E-score” value came out at 0.00207.
As for CAACTAAA, the figure is -0.0959.
To CAAGTAAC belongs 0.107; to CGAGGCTA, -0.0925.
As for GCAAACAA, the figure is 0.0374; as for AGTCAAAC, -0.0544; as for ACGTTTAA, 0.245.
For the sequence ATCTTTGC, the “PBM E-score” value was determined as 0.0754.
As for GGCGTCCA, the figure is -0.167; as for CAACGTTG, 0.281; as for CTCGTTAA, 0.153.
As to AATTCGGA, the “PBM E-score” value stood at 0.029.
Turning to GATAAACA, the “PBM E-score” value stood at 0.0474.
As for CGGATCAG, the figure is -0.0313; as for ACATAGGG, -0.165.
To GCTTTACA belongs 0.11; to GGCAACTA, -0.00878.
Turning to ACGGGTAT, the “PBM E-score” value amounted to 0.112.
To CAACATCG belongs 0.116.
Consider GCCATAAC, for which the “PBM E-score” value was -0.327.
Regarding AAGCGCAC, the “PBM E-score” value is -0.115.
As for CAGGCGCC, the figure is -0.119; as for GGACACCA, -0.219.
To GAGCACTC belongs 0.0666.
To CTTGATAC belongs 0.205.
For GGTCTGGA, the “PBM E-score” value was -0.254.
To ACGAGCTA belongs 0.0676.

Values taken from the supplement of paper PMC3334620.
